The other results are listed elsewhere or left out.
What follows are sequences tested against OsWRKY34 (Oryza sativa, UniProt Q0JBA9 1-250) (assay: protein-binding microarray (RPBM); PBS, 2% BSA, 51.3 ng/ul salmon testes DNA, 50 uM zinc acetate, 200 nM TF, 25 C, 1 h; high values mean tight binding). Settings: protein: recombinant; tags: N-terminal polyhistidine and DsRed monomer fusion (pET32a); label: CyDye5-dUTP incorporated in the synthesized complementary strand; 3' TTTTT single-stranded linker to array surface; dsDNA, one strand shown.
Method in brief: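 Ni–NTA purification followed expression in E. coli BL21-CodonPlus of transcription factors fused N-terminally to a polyhistidine tag and DsRed. At 200 nM in PBS with 2% BSA, salmon testes DNA and 50 µM zinc acetate, the protein was incubated for 1 h at 25 °C with a custom Agilent array that had been primer-extended with Cy5-dUTP and blocked with 2% BSA. After washing, the array was read on an Axon 4000B scanner. The binding signal is per-feature fluorescence intensity in arbitrary units.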

Amino acid sequences for entries named in this document (tags omitted).
UniProt Q0JBA9, entry or part of it: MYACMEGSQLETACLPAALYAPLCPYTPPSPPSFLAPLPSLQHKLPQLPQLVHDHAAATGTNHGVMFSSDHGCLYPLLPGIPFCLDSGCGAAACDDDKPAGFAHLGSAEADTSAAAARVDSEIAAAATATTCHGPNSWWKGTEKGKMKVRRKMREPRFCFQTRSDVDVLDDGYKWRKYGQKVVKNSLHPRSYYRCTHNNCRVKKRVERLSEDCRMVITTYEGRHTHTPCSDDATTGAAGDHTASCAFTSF

Sequence | binding signal
GATGACACAGTAGTACTCCTAGGCACGTACGTACTTTCTCCGGAGTCACCTAGTGCAG | 8880 fluorescence intensity (a.u.)
ATGCTCCTACTTTCCTTTGCTGTATATATTACTCCATTTGCGGAGTCACCTAGTGCAG | 8260 fluorescence intensity (a.u.)
TAGTGTTCCCTTTGTTCATATTTTCATGTTTTCTCTAACACGGAGTCACCTAGTGCAG | 15200 fluorescence intensity (a.u.)
TAGCGTATGACAATGTTATTCATGTGTGCGGTTTTTTATACGGAGTCACCTAGTGCAG | 8600 fluorescence intensity (a.u.)
GCCACTTCCCACCACCTCCTCTCCTTCCCTCGCTCTGCTACGGAGTCACCTAGTGCAG | 8790 fluorescence intensity (a.u.)
TTTTTTTGCCTCGCCACGTAGAACATTTGAACGCATGTACCGGAGTCACCTAGTGCAG | 8390 fluorescence intensity (a.u.)
ACCCACCGCCGCAACACGCGCTCCACCGCCAACACATCGCCGGAGTCACCTAGTGCAG | 9720 fluorescence intensity (a.u.)
TTAGCTTCTTTCCTTAGTTTTTTTTTCTCTAAAGGGGCATCGGAGTCACCTAGTGCAG | 8650 fluorescence intensity (a.u.)
TGATGACTCTCACCTGACCCGCGATCCTCCGGTGGGCCCACGGAGTCACCTAGTGCAG | 11500 fluorescence intensity (a.u.)
GAGACCTGATGCCACGGAAAGCCCATGGGCCTTCGTTGACCGGAGTCACCTAGTGCAG | 11600 fluorescence intensity (a.u.)
AAGAGTCTATACATGTATCAGCATATATTAATTATATATACGGAGTCACCTAGTGCAG | 8330 fluorescence intensity (a.u.)
TACTGTCACAGTAGTTCGGAGGGTAATTCGTACTTTTTCCCGGAGTCACCTAGTGCAG | 8870 fluorescence intensity (a.u.)
TTAGTTGTAAAAAATTTTATCCCTACATGTTACATCGAATCGGAGTCACCTAGTGCAG | 8120 fluorescence intensity (a.u.)
TTGCTTATTGTAGTTATTGGAAGATTCTTAATTTCTTTCTCGGAGTCACCTAGTGCAG | 8280 fluorescence intensity (a.u.)
GGGTGTGAAGTGTACTCTCTTTTTTTTTAACGTTTTAGATCGGAGTCACCTAGTGCAG | 11400 fluorescence intensity (a.u.)
TCCACCCATCCTCATCATTATCCTCTCTCTCCTCTCTCACCGGAGTCACCTAGTGCAG | 9640 fluorescence intensity (a.u.)
CACTGCTTCTCACCCAACTCGCGCGCGCCATTCCTTGCCTCGGAGTCACCTAGTGCAG | 11600 fluorescence intensity (a.u.)
ATTTGTAAGTATCAACCATCATATCATTCTCTCTCTTTTACGGAGTCACCTAGTGCAG | 8130 fluorescence intensity (a.u.)
GTGGGAGCAAGTGGTGGGCAATATGCCATGTAGTAGTAGACGGAGTCACCTAGTGCAG | 9760 fluorescence intensity (a.u.)
TGTTATTATGTTTCAGGAATACTTCCTCTGGTTATAAATACGGAGTCACCTAGTGCAG | 9850 fluorescence intensity (a.u.)
TTGGCCAAAGTCAAACTGTTTCAAGTTTGACTAAGTTTATCGGAGTCACCTAGTGCAG | 13200 fluorescence intensity (a.u.)

Sequence | binding signal
CCACGCTCCGGGCCGTTGTCTTCTGTGTCGCTTCGAATTCCGGAGTCACCTAGTGCAG | 9760 fluorescence intensity (a.u.)
TTGAGTCTGCTTCTATTTTTCTATTCGAGCCCTTTTTCCTCGGAGTCACCTAGTGCAG | 9400 fluorescence intensity (a.u.)
TACACACACAAACTTTCAACTTTTCTGTCATATCGTTCCACGGAGTCACCTAGTGCAG | 9160 fluorescence intensity (a.u.)
CCCCTTCGTCGCCGCCGCAATCACACGCACACCCTTTACCCGGAGTCACCTAGTGCAG | 9770 fluorescence intensity (a.u.)
CAGCTTCCTAGATATCCGGCAGAGCACTACTACTATTATCCGGAGTCACCTAGTGCAG | 8300 fluorescence intensity (a.u.)
TCGTACGCCTCGGCTGTACTTTGATCCCACCACCACCACCCGGAGTCACCTAGTGCAG | 9210 fluorescence intensity (a.u.)
TGTGACCTCTGTGTGTGTGTTGCTTCTCCTGTTCATCACACGGAGTCACCTAGTGCAG | 11100 fluorescence intensity (a.u.)
CCACTCGCTCTCCTCACAGCCACAGCTCGCCATCGTCGTCCGGAGTCACCTAGTGCAG | 9040 fluorescence intensity (a.u.)
CATATCTGATGAAGCCACCTACACCATTTGTCCTATTCTGCGGAGTCACCTAGTGCAG | 9190 fluorescence intensity (a.u.)
GCGTGAGTGCGGAAAACGAGGGGAGGGGTTGGGAACTTGACGGAGTCACCTAGTGCAG | 9150 fluorescence intensity (a.u.)
GCAGTCCCGGGTCACTGACCGTTTTGACCACCGGTGACCTCGGAGTCACCTAGTGCAG | 9150 fluorescence intensity (a.u.)
AAGTGTGCCTTATTTTACCATTTGGTTGAGCGTATATATACGGAGTCACCTAGTGCAG | 10000 fluorescence intensity (a.u.)
TCAACTTTTCTATCACATCAAAACTTTCCTACGCACATAACGGAGTCACCTAGTGCAG | 8370 fluorescence intensity (a.u.)
CCCTTTCGGACCCTCGTCACTCATCGTCGTTTGCCCGGCGCGGAGTCACCTAGTGCAG | 9150 fluorescence intensity (a.u.)
TATCTCCTATCTCCGTCAGAAATCCAATCAATCGCGATTCCGGAGTCACCTAGTGCAG | 8580 fluorescence intensity (a.u.)
CTTCTTCGGATCACTCGGTTGGTTTCTTGGTTTCTTGGTTCGGAGTCACCTAGTGCAG | 13000 fluorescence intensity (a.u.)
ATCAACTCCACTTCTCACACGCAGCACGCTTGCAAAATCCCGGAGTCACCTAGTGCAG | 10400 fluorescence intensity (a.u.)
AGTACCTTTTTAGCGTATTTTTGCAGAATGTGTGTATCTCCGGAGTCACCTAGTGCAG | 8850 fluorescence intensity (a.u.)
GATGTGCTAATGCCTAATGGAATCATATTTTTATTCTGTCCGGAGTCACCTAGTGCAG | 8380 fluorescence intensity (a.u.)
GCAAAAGTCCTCTTGCTCGTGTTGTAGTTGTGTTGCGTTCCGGAGTCACCTAGTGCAG | 8550 fluorescence intensity (a.u.)
GACTTTTTAGTACGTGTTTGACCATTCGTCTTATTCAAAACGGAGTCACCTAGTGCAG | 11900 fluorescence intensity (a.u.)

3 entries from above, as comma-separated lines:
Sequence,binding signal
GCAGTCCCGGGTCACTGACCGTTTTGACCACCGGTGACCTCGGAGTCACCTAGTGCAG,9150 fluorescence intensity (a.u.)
AAGTGTGCCTTATTTTACCATTTGGTTGAGCGTATATATACGGAGTCACCTAGTGCAG,10000 fluorescence intensity (a.u.)
TCAACTTTTCTATCACATCAAAACTTTCCTACGCACATAACGGAGTCACCTAGTGCAG,8370 fluorescence intensity (a.u.)

From publication PMC7819943, “Rice protein-binding microarrays: a tool to detect cis-acting elements near promoter regions in rice”
